According to PubChem BioAssay AID651664 (NMMLSC, 2012):
Screen size: about 1,800 compounds; fewer than 10 were called active.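 How the source made its calls: active means inhibition of granule release above a set limit; inactive means the rest.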 This is one part of the list.

Assay: LAMP-1 surface externalization blockers in TALL-104 cells – cell-based, flow cytometry, validation set (AID 651664)
Details: TALL-104 LAMP-1 externalization, at 15.2 µM, hits give high values, stimulated with thapsigargin and PMA

| Structure (SMILES) | inhibition |
| --- | --- |
| Clc1ccc(CSc2nnc(CN3CCOCC3)n2-c2ccccc2)cc1Cl | inactive: 4.1% |
| Cc1ccc(S(=O)(=O)Cn2nnnc2CN(Cc2ccco2)Cc2cccs2)cc1 | inactive: 1.5% |
| CCC(C)NC(=O)Cn1cccc1C(=O)c1ccccc1 (stereo not drawn) | inactive: -0.2% |
| CN1CCN(c2nc(-c3ccccc3)nc3c2oc2ccccc23)CC1 | inactive: 1.5% |
| COc1cnn(-c2ccccc2)c(=O)c1SCc1ccc(Cl)cc1Cl | inactive: 2.7% |
| CCOC(=O)c1nn(-c2cccc(C)c2)c2nc(-c3ccccc3)c(C#N)c(=O)n12 | inactive: 3.8% |
| Cc1ccccc1OCC(=O)Nc1cccc2nsnc12 | inactive: 1.6% |
| Cc1onc(-c2ccccc2Cl)c1C(=O)N1CCN(C(=O)c2ccco2)CC1 | inactive: 1.3% |
| Cc1cc(C(=O)CSc2ccc(Cl)cc2)cc(C)c1OC(=S)N(C)C | inactive: 0% |
| O=C1c2ccccc2C(=O)N1CCCCN(C(=O)c1ccco1)c1ccc(Cl)cc1 | inactive: -3.6% |
| COc1ccc(CNC(=O)C(c2ccc(C)o2)N(C(=O)c2csnn2)c2ccc(C(C)C)cc2)cc1 (stereo not drawn) | inactive: -1.9% |
| CC1=NC(=O)C(N=Nc2ccccc2)N1c1ccccc1 (stereo not drawn) | inactive: -2.8% |
| COc1ccc(NC(=O)Cn2nnc(-c3ccccc3NC(=O)c3cccs3)n2)cc1 | inactive: -1.1% |
| CCCCN(C)C(=O)C1CCN(Cc2ccc(OCc3ccccc3)cc2)CC1 | inactive: 0.8% |
| CCOC(=O)c1ccc(N/C=C2\CCCCC2=O)cc1 | inactive: -0.3% |
| COC(=O)c1ccc(/C=N\n2c(C)nnc2C)cc1 | inactive: 1.6% |
| O=S(=O)(c1cccs1)N1CN(Cc2ccccc2)c2nc3ccccc3nc21 | inactive: 4.3% |
| Cc1ccc(CN2C(=O)CCC2C(=O)NCc2ccco2)cc1 (stereo not drawn) | inactive: -1.9% |
| COc1ccc(OC)c(S(=O)(=O)N2CCN(C34CC5CC(CC(C5)C3)C4)CC2)c1 | inactive: 1.6% |
| Cc1nc(NCc2ccco2)c2oc3ccccc3c2n1 | inactive: -2.5% |
| Nn1c(SCC(=O)N2CCN(S(=O)(=O)c3ccccc3)CC2)nnc1-c1cccs1 | inactive: -1.8% |

| Structure (SMILES) | inhibition |
| --- | --- |
| O=C1C(NS(=O)(=O)c2cccs2)=C(N2CCN(c3cccc(Cl)c3)CC2)C(=O)c2ccccc21 | inactive: 1.6% |
| Cc1ccc(-c2c3c(=O)n(C)c(=O)n(C)c3cn2Cc2cccnc2)cc1 | inactive: -0.5% |
| Cc1cc(C)c2c(N)c(-c3nc4ccccc4[nH]3)sc2n1 | inactive: -4.9% |
| O=C(Nc1ccc2oc(-c3cccnc3)nc2c1)c1ccc(Br)o1 | inactive: -0.3% |
| c1ccc(CSc2nnc(-c3cccnc3)o2)cc1 | inactive: 1.8% |
| C=C(C)CN1C(=O)C(O)(CC(=O)c2ccc3c(c2)OCCO3)c2ccccc21 (stereo not drawn) | inactive: 1.5% |
| O=C(Nc1ccc(NC(=S)NC(=O)c2ccccc2Cl)cc1)c1cccc(Cl)c1 | inactive: 3.5% |
| CCOc1ccc(/C(O)=C2/C(=O)C(=O)N(CC3CCCO3)C2c2ccc(C)o2)cc1 (stereo not drawn) | inactive: -2.9% |
| c1ccc(COc2ccc(CN3CCN(c4ccccn4)CC3)cc2)cc1 | inactive: -1.3% |
| CCN1C(=O)C(C(=O)Nc2ccc(OC)cc2)C2CC1(C)Oc1ccccc12 (stereo not drawn) | inactive: -0.4% |
| COc1ccccc1CNC(=O)COC(=O)C1=COCCO1 | inactive: 0.1% |
| COC(=O)c1cc(NC(=O)CN(c2ccc3c(c2)OCO3)S(C)(=O)=O)ccc1Cl | inactive: 1.7% |
| O=C(NCC1COc2ccccc2O1)c1cc2ccccc2o1 (stereo not drawn) | inactive: 8.2% |
| CCc1ccc(NC(=S)Nc2cccc(OC)c2)cc1 | inactive: -0.9% |
| O=C(Nc1ccc2oc(=O)ccc2c1)c1cccnc1Cl | inactive: -1.5% |
| CC1CCCN(C(=O)C2CCN(CC3CC=CCC3)CC2)C1 (stereo not drawn) | inactive: -1.1% |
| Cc1ccccc1OCC1Cc2c(nc(N)c(C#N)c2N)O1 (stereo not drawn) | inactive: -2.8% |
| O=C(/C=C/c1ccccc1)NCCSc1ccc(Cl)cc1 | inactive: 1.3% |
| N#CC(=C1CCCC1)c1nc(-c2ccccc2)cs1 | inactive: -1% |
| CCOC(=O)c1cccc(N2C(=O)C3C(C2=O)C2C=CC3C23CC3)c1 (stereo not drawn) | inactive: -3.8% |
| CC(=O)C(C)Oc1ncn(-c2ccccc2)n1 (stereo not drawn) | inactive: -3% |

Copied from the entries so far (3 entries):

| Structure (SMILES) | inhibition |
| --- | --- |
| Cc1nc(NCc2ccco2)c2oc3ccccc3c2n1 | inactive: -2.5% |
| Nn1c(SCC(=O)N2CCN(S(=O)(=O)c3ccccc3)CC2)nnc1-c1cccs1 | inactive: -1.8% |
| O=C1C(NS(=O)(=O)c2cccs2)=C(N2CCN(c3cccc(Cl)c3)CC2)C(=O)c2ccccc21 | inactive: 1.6% |

(next part)

| Structure (SMILES) | inhibition |
| --- | --- |
| CSc1nn(CCc2ccncc2)c(=S)s1 | inactive: 4.6% |
| Cc1cccc(NCc2ccccc2O)c1C | inactive: -1.3% |
| CC(C)Cn1c2c(c(O)c(C(=O)Nc3ccc(F)cc3)c1=O)CCCC2 | inactive: -2.4% |
| CCCCn1nnc(NC(=O)Cc2ccc(Cl)cc2)n1 | inactive: -2.5% |
| CC1=NN(Cc2ccccc2)C(=O)/C1=C\c1ccc(N(C)C)cc1 | inactive: 0.3% |
| CCn1c(SCC(=O)N2CCCc3ccccc32)nnc1-c1ccco1 | inactive: -1.1% |
| COc1nnc(-c2ccc(N3CCOCC3)c(NC(=O)c3ccco3)c2)c2ccccc12 | inactive: -3.4% |
| Cc1cc(NC(=O)c2cccc3ccccc23)cc(C)c1OCC(=O)N1CCOCC1 | inactive: -2.8% |
| CC(c1ccco1)N(C(=O)Nc1ccc(Cl)cc1)c1ccccn1 (stereo not drawn) | inactive: -1% |
| Cc1nn2cc(-c3ccccc3)nc2[nH]c1=O | inactive: 2.4% |
| N#Cc1c(N)n(CCOC(=O)c2cccc(Br)c2)c2nc3ccccc3nc12 | inactive: -0.6% |
| COc1ccc2c(-c3ccccc3)cc(N3CCOCC3)nc2c1 | inactive: -1.6% |
| O=C(c1ccccc1)[C@H]1CC=CC[C@H]1C(=O)O | inactive: -0.5% |
| Cn1c(-c2ccccc2Br)n[nH]c1=S | active: 89.2% |
| CCCn1c(SCC(=O)Nc2cc(Cl)ccc2OC)n[nH]c1=O | inactive: -3.1% |
| CCOC(=O)c1cnn(-c2nc3c(C)cccc3s2)c1C(F)(F)F | inactive: 9.1% |
| CN(Cc1ccccc1)C(=O)N[C@@H](Cc1ccccc1)C(=O)O | inactive: -4.9% |
| COc1ccc(C2CC(=O)c3cnc(N)nc3C2)c(OC)c1 (stereo not drawn) | inactive: -2.3% |
| Nc1nc2ccc(-c3nc4ccccc4o3)cc2s1 | inactive: 0.1% |
| CSc1ccccc1C(=O)NCc1ccc(S(N)(=O)=O)cc1 | inactive: -0.8% |
| O=c1oc(Nc2ccccc2F)nc2ccccc12 | inactive: -3.8% |
